Laboratory results as given in publication doi:10.1101/827071.
Results are given in words; binding and its absence hold for the method and conditions named. Binding seen in cells or lysates may run through a third protein. A yes stands for co-enrichment or nearness to the bait. Other partners may have been found.

Chains of the proteins cited; added tags and fusions are not shown.
UniProt A5PLL7: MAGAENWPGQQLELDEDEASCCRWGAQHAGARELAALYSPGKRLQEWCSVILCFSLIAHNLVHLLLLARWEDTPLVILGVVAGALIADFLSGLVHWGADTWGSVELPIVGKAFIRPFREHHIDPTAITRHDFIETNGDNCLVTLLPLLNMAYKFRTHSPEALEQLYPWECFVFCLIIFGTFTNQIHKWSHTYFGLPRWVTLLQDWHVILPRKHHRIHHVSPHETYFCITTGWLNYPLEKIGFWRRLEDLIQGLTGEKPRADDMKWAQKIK

Molecular target: TMEM189-GFP (human) (UniProt A5PLL7)
Assay: affinity purification with mass spectrometry

B1: SPTLC2 (protein, UniProt O15270 1-562)
chain: MRPEPGGCCCRRTVRANGCVANGEVRNGYVRSSAAAAAAAAAGQIHHVTQNGGLYKRPFNEAFEETPMLVAVLTYVGYGVLTLFGYLRDFLRYWRIEKCHHATEREEQKDFVSLYQDFENFYTRNLYMRIRDNWNRPICSVPGARVDIMERQSHDYNWSFKYTGNIIKGVINMGSYNYLGFARNTGSCQEAAAKVLEEYGAGVCSTRQEIGNLDKHEELEELVARFLGVEAAMAYGMGFATNSMNIPALVGKGCLILSDELNHASLVLGARLSGATIRIFKHNNMQSLEKLLKDAIVYGQPRTRRPWKKILILVEGIYSMEGSIVRLPEVIALKKKYKAYLYLDEAHSIGALGPTGRGVVEYFGLDPEDVDVMMGTFTKSFGASGGYIGGKKELIDYLRTHSHSAVYATSLSPPVVEQIITSMKCIMGQDGTSLGKECVQQLAENTRYFRRRLKEMGFIIYGNEDSPVVPLMLYMPAKIGAFGREMLKRNIGVVVVGFPATPIIESRARFCLSAAHTKEILDTALKEIDEVGDLLQLKYSRHRLVPLLDRPFDETTYEETED
**Q.** With B1 as the binder, how does the binding read?
**A.** binds
